This is one part of the list.
compound: COc1ccc(Cn2ccc3cc(C)c(C(=O)NO)cc32)cc1; test: dose-dependent thermal stabilisation call (2D-TPP, DLPTP, 10% FDR) (binary (1 = stabilised)); higher = stabilised by the compound; conditions: system: HL-60 intact cells; concentration range 0.04-10 µM
Description: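 2D thermal proteome profiling in intact HL-60 cells treated with BRD-3811 (0, 0.04, 0.29, 2, 10 uM) for 90 min at 37 C, then heated 3 min at one of 12 temperatures (42-63.9 C). Soluble protein was quantified by TMT10 MS. The value is the DLPTP call of the paper: dose-dependent thermal stabilisation over all temperatures at 10% FDR (F-test of a dose-response against a flat model); one experiment, one call per tested protein.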

Chains of the proteins cited; added tags and fusions are not shown. Lines headed by an entry give the natural chain unless they say otherwise; changes in a name come on top.
UniProt Q86XA9: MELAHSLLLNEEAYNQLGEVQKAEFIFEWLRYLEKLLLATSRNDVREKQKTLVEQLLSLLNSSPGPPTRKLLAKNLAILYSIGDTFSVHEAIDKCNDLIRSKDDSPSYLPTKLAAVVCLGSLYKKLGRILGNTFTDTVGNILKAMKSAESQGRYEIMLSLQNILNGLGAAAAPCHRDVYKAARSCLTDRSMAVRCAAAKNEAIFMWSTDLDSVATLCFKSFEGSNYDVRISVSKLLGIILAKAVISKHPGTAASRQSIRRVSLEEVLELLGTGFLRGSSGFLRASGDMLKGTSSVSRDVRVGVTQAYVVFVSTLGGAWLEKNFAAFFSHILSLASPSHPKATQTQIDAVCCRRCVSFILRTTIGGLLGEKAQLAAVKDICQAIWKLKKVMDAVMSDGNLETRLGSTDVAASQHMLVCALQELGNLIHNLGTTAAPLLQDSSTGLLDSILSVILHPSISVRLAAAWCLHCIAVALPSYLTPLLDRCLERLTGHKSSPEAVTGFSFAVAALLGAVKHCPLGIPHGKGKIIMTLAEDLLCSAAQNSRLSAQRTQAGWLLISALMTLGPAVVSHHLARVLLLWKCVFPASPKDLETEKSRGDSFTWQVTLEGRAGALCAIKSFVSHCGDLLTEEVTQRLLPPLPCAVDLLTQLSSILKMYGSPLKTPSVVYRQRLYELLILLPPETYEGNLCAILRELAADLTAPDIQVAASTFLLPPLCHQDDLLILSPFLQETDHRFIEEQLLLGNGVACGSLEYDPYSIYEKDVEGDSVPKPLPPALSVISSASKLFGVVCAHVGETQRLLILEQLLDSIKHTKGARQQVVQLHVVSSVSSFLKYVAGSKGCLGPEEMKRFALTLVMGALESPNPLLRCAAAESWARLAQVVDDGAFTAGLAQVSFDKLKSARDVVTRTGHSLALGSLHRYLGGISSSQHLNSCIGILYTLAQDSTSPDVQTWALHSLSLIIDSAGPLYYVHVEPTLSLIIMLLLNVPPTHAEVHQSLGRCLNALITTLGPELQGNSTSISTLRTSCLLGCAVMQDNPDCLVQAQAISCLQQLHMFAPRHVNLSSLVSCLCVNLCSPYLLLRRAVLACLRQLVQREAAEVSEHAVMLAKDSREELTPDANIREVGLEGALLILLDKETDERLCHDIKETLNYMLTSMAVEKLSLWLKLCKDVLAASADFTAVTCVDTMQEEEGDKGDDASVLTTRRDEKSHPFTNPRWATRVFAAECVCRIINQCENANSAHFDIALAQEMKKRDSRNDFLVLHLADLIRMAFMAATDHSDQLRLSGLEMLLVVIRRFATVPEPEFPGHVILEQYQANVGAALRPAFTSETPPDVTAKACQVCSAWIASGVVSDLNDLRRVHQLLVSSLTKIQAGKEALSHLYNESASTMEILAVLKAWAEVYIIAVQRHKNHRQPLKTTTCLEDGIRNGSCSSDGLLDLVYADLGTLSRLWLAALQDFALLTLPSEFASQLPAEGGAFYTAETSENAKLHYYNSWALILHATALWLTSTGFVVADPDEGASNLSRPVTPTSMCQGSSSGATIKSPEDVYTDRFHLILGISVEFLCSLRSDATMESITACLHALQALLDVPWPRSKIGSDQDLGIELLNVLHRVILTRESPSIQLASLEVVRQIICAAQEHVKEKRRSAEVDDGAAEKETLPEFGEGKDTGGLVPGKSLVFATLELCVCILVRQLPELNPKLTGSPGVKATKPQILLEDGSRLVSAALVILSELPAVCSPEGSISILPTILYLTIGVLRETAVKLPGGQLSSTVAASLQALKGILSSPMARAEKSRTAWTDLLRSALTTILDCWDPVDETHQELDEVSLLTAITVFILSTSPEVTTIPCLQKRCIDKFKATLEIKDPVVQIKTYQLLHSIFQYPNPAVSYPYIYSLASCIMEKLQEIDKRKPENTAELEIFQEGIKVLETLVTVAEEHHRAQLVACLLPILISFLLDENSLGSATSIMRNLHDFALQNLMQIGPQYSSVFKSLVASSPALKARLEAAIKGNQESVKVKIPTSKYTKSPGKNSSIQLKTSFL
UniProt Q9Y5Q9: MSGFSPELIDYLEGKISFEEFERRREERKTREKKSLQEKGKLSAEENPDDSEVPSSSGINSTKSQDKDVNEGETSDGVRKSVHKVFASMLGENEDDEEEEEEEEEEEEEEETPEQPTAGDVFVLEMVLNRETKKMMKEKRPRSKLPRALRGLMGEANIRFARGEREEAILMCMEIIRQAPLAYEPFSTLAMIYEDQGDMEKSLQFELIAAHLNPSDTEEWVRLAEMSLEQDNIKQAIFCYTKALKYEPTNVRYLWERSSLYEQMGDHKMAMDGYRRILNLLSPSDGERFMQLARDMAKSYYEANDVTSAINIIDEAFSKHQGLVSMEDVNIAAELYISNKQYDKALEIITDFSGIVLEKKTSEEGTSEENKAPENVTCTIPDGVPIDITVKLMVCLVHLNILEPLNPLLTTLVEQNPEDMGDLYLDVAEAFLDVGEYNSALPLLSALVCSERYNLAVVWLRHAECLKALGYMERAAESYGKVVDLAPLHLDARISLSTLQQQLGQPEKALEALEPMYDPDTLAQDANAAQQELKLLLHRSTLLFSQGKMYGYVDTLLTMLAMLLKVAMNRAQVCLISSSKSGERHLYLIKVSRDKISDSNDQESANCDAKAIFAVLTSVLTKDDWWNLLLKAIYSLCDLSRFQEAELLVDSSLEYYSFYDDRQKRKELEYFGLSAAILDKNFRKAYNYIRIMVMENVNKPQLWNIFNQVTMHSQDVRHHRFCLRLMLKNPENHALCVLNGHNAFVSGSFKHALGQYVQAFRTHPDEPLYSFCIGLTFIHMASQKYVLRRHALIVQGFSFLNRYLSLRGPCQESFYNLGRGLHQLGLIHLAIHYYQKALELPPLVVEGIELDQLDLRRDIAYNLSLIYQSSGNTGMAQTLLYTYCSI
UniProt Q9UBI9: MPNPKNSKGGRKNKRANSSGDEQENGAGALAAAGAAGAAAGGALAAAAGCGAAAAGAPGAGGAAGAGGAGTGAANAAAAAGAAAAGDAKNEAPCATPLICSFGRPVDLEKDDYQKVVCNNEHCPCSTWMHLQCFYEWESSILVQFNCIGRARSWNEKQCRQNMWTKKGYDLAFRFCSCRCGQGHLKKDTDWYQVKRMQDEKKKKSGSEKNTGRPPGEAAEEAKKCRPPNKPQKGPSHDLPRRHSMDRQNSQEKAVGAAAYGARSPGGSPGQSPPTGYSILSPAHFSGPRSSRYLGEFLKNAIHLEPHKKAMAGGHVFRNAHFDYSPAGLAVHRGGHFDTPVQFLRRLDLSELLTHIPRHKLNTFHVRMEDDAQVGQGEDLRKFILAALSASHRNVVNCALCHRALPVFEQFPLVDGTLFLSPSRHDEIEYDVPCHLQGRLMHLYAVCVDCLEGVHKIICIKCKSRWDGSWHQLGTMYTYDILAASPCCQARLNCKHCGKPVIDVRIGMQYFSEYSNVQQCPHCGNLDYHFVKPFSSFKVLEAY
UniProt P28799: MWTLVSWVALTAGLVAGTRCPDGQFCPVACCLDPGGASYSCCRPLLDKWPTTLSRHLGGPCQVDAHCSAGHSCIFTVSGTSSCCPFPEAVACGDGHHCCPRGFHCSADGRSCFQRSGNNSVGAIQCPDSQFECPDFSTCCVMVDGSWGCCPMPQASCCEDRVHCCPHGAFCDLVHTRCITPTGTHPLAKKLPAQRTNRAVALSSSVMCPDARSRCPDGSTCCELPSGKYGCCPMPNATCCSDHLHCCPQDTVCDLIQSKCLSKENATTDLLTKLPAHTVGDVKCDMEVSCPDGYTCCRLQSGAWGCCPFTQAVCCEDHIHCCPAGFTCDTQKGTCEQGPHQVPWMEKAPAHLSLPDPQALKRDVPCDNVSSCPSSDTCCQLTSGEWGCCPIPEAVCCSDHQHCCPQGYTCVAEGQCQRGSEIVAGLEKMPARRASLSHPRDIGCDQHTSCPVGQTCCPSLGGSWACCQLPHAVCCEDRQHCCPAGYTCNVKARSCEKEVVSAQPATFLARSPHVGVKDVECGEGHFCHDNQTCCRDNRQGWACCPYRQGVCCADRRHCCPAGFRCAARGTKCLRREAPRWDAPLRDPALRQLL
UniProt Q5T3I0: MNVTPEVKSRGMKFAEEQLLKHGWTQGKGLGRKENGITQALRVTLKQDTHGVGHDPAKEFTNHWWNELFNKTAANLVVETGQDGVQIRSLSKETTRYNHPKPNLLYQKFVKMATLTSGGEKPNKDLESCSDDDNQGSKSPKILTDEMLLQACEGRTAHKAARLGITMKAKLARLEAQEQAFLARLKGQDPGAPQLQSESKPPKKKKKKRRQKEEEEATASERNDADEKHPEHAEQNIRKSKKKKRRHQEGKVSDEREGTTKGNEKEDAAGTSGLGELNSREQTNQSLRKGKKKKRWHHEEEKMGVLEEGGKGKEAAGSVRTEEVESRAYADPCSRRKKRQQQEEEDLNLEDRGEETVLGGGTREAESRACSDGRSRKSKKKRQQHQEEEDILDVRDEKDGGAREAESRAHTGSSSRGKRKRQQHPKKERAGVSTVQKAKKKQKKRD
UniProt Q8N335: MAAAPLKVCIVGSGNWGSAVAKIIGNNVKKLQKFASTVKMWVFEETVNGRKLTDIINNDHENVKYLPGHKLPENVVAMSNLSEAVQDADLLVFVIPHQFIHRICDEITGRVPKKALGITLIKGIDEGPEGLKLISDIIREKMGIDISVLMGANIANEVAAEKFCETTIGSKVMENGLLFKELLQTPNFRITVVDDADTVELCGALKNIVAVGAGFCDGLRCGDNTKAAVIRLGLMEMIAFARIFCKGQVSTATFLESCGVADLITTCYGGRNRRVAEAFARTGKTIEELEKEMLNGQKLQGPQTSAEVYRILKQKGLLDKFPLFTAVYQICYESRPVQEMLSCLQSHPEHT
UniProt P16403, whole entry: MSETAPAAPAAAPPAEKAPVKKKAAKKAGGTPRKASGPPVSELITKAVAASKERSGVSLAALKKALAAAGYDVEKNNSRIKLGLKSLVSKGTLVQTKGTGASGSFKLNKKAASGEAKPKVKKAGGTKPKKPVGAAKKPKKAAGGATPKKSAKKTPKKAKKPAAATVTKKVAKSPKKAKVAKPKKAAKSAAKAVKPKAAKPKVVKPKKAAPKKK
UniProt Q8TBA6: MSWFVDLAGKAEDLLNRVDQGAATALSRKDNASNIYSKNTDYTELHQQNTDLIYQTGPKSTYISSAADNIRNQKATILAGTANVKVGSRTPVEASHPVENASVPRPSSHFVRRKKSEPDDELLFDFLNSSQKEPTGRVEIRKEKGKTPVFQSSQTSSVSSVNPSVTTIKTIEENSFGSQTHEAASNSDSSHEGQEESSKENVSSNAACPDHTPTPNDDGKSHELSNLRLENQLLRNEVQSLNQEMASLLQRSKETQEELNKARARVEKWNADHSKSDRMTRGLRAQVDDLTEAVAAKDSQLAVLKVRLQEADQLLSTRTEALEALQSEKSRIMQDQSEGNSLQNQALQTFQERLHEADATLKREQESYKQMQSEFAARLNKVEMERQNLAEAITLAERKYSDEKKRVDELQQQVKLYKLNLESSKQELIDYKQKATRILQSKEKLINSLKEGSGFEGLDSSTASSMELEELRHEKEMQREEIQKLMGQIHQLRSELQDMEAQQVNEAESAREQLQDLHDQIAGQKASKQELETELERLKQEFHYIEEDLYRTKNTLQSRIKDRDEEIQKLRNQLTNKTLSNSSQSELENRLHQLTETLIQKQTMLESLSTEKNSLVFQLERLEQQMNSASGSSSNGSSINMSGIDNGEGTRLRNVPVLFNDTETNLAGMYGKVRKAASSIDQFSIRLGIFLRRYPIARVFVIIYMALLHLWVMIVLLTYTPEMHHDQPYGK
UniProt P29084: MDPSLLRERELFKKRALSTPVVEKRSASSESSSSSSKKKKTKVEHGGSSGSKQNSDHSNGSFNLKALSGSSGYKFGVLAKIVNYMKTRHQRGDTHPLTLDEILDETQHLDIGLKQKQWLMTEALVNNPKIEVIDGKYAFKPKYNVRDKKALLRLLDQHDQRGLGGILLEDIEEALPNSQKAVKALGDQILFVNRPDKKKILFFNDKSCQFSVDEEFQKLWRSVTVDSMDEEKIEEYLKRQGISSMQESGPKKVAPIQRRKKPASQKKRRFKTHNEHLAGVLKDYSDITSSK
UniProt Q53T59: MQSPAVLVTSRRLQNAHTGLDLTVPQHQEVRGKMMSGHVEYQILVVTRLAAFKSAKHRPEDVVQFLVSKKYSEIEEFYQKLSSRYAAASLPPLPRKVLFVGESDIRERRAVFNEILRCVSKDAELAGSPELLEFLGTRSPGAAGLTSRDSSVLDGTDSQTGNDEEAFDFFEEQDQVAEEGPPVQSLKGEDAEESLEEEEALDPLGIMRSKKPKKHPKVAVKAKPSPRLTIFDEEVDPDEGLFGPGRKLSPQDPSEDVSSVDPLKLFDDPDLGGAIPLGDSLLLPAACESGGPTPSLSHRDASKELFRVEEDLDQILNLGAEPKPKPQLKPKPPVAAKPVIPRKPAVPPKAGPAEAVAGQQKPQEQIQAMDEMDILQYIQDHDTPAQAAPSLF

Target	dose-dependent thermal stabilisation call
HEATR5A (UniProt Q86XA9)	inactive: 0
GTF3C3 (UniProt Q9Y5Q9)	inactive: 0
HADHA (UniProt P40939)	inactive: 0
HECA (UniProt Q9UBI9)	inactive: 0
HSCB (UniProt Q8IWL3)	inactive: 0
GRN (UniProt P28799)	inactive: 0
HISPPD1 (UniProt O43314)	inactive: 0
GTPBP6 (UniProt O43824)	inactive: 0
GPATCH4 (UniProt Q5T3I0)	inactive: 0
GPBP1 (UniProt Q86WP2)	inactive: 0
HSPA5 (UniProt P11021)	inactive: 0
GPD1L (UniProt Q8N335)	inactive: 0
HIST1H1C (UniProt P16403)	inactive: 0
GOLGA5 (UniProt Q8TBA6)	inactive: 0
GNPTAB (UniProt Q3T906)	inactive: 0
GTF2E2 (UniProt P29084)	inactive: 0
GOLGA7 (UniProt Q7Z5G4)	inactive: 0
HSPC152 (UniProt Q9UI30)	inactive: 0
HSPA9 (UniProt P38646)	inactive: 0
GOPC (UniProt Q9HD26)	inactive: 0
HIF1AN (UniProt Q9NWT6)	inactive: 0
HS1BP3 (UniProt Q53T59)	inactive: 0
HELLS (UniProt Q9NRZ9)	inactive: 0
GNPDA2 (UniProt Q8TDQ7)	inactive: 0
GTF2A1 (UniProt P52655)	inactive: 0
HIST3H2BB (UniProt Q8N257)	inactive: 0

An excerpt of the results above, for reference:
Target	dose-dependent thermal stabilisation call
HSCB (UniProt Q8IWL3)	inactive: 0
GRN (UniProt P28799)	inactive: 0
